Source: patent publication US8623326B2 (University of Western Ontario, priority 2008, dated 2014)
Part of at least one peptide drawing is inferred or uncertain, most often the ends.

Sequences of proteins named here, by UniProt entry; tags and fusion partners are left off.
UniProt Q92847, whole entry: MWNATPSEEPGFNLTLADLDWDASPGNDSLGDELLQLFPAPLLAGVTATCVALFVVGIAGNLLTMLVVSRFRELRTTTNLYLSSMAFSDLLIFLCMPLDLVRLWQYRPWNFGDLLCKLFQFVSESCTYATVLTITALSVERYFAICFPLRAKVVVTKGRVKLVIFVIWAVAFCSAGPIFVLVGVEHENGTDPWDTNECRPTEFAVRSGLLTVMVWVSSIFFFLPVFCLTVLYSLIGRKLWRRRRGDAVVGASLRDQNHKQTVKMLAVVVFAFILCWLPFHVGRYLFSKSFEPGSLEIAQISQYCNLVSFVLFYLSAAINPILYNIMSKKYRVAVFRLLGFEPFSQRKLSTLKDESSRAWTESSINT

Molecular target: T1, GHSR (Homo sapiens, UniProt Q92847)
T1 construct: expressed in transfected cells; host or cells: CHO-K1
Assay: Radioligand binding assay (125I-ghrelin displacement)
Settings: read-out: IC50 (nM), binding affinity of rhenium bearing ghrelin analogues; human recombinant CHO-K1 cells as receptor source; 125I-ghrelin (human) radioligand; semi-quantitative from % inhibition at 10^-5 to 10^-8 M, duplicated

SMILES | IC50 [nM]
CC(C)C[C@H](NC(=O)[C@H](Cc1ccccc1)NC(=O)C(CNC(=O)CCC(=O)[C]12[CH]3[CH]4[CH]5[CH]1[Re]4532(=[C]=O)(=[C]=O)=[C]=O)NC(=O)[C@H](CO)NC(=O)CN)C(=O)N[C@@H](CO)C(=O)N1CCC[C@H]1C(=O)N[C@@H](CCC(=O)O)C(=O)N[C@@H](Cc1c[nH]cn1)C(=O)N[C@@H](CCC(N)=O)C(=O)N[C@@H](CCCNC(=N)N)C(=O)N[C@H](C(=O)N[C@@H](CCC(N)=O)C(=O)N[C@@H](CCC(N)=O)C(N)=O)C(C)C (some centres unmarked) [Cmpd 20a, Ghrelin(1-14)-4C-CpRe(CO)3] | 35
CC(C)C[C@H](NC(=O)[C@H](Cc1ccccc1)NC(=O)C(CNC(=O)CCCCC(=O)[C]12[CH]3[CH]4[CH]5[CH]1[Re]4532(=[C]=O)(=[C]=O)=[C]=O)NC(=O)[C@H](CO)NC(=O)CN)C(=O)N[C@@H](CO)C(=O)N1CCC[C@H]1C(=O)N[C@@H](CCC(=O)O)C(=O)N[C@@H](Cc1c[nH]cn1)C(=O)N[C@@H](CCC(N)=O)C(=O)N[C@@H](CCCNC(=N)N)C(=O)N[C@H](C(=O)N[C@@H](CCC(N)=O)C(=O)N[C@@H](CCC(N)=O)C(N)=O)C(C)C (some centres unmarked) [Cmpd 20b, Ghrelin(1-14)-6C-CpRe(CO)3] | 174
